Experimental data from publication PMC8833107.
Results are given in words; binding and its absence hold for the method and conditions named. In cells and extracts the contact can be indirect. Some entries that bind do so weakly or less than the wild type.

The chains behind the UniProt entries cited, without tags or fusion partners. Where a name states a change or a piece, a line headed by the entry shows the natural chain unless it says otherwise.
UniProt P63104: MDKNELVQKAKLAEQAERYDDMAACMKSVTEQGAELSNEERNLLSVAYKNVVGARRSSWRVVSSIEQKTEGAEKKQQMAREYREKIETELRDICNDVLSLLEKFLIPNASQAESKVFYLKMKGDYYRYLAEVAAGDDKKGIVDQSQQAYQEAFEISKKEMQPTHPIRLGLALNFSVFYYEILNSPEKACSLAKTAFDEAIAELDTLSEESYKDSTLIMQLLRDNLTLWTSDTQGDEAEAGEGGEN

What was measured:
[1] = target: Myc-tagged 14–3–3ζ (WT) (human) (UniProt P63104); assay: co-IP; anti-Myc immunoprecipitation from lysates of HEK293T cells transfected with pCMV–Myc–14–3–3ζ (WT) or (S58A), treated with DMSO or KB1541 (methods: 8 μM biotinylated KB1541 for 5 days); lysis buffer 50 mM Tris-HCl pH 7.4, 150 mM KCl, 0.05% NP-40; immunoblot for ATP synthase 5 alpha and beta
[2] = target: Myc-tagged 14–3–3ζ (S58A) (human) (UniProt P63104); assay: as above

binding [1]: binds | binding [2]: binds
Substance: ATP synthase 5 beta (from UniProt P06576 48-529)
